For three substances, binding results are on record in article PMC10090139.

The chains behind the UniProt entries cited, without tags or fusion partners. Residues count along the entry.
UniProt P10721, residues 26-976: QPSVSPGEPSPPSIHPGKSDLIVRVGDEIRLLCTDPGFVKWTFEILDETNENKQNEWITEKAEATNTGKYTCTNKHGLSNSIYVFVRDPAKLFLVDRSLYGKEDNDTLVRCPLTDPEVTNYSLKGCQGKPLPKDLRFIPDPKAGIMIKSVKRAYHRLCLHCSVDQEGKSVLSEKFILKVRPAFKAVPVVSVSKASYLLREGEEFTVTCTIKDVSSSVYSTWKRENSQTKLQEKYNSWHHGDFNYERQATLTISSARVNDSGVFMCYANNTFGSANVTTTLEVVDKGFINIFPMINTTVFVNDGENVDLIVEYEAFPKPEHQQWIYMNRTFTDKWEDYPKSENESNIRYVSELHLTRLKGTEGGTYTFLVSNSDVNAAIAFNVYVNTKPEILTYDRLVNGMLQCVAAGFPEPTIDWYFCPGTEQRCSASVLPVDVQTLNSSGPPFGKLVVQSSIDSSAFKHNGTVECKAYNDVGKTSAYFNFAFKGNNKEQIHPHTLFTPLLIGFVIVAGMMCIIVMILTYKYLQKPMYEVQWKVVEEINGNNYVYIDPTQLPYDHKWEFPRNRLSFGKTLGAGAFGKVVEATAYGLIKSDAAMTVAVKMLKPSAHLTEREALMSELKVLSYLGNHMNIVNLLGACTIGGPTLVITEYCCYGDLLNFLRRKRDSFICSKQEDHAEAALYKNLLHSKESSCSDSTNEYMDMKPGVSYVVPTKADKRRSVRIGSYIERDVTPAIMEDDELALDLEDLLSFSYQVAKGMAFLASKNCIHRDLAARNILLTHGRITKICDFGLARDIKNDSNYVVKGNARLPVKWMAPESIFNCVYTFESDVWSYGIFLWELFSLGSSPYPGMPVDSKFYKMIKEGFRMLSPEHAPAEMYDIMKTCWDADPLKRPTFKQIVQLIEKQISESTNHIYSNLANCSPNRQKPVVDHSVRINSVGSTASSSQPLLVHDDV
UniProt P05532, residues 25-979: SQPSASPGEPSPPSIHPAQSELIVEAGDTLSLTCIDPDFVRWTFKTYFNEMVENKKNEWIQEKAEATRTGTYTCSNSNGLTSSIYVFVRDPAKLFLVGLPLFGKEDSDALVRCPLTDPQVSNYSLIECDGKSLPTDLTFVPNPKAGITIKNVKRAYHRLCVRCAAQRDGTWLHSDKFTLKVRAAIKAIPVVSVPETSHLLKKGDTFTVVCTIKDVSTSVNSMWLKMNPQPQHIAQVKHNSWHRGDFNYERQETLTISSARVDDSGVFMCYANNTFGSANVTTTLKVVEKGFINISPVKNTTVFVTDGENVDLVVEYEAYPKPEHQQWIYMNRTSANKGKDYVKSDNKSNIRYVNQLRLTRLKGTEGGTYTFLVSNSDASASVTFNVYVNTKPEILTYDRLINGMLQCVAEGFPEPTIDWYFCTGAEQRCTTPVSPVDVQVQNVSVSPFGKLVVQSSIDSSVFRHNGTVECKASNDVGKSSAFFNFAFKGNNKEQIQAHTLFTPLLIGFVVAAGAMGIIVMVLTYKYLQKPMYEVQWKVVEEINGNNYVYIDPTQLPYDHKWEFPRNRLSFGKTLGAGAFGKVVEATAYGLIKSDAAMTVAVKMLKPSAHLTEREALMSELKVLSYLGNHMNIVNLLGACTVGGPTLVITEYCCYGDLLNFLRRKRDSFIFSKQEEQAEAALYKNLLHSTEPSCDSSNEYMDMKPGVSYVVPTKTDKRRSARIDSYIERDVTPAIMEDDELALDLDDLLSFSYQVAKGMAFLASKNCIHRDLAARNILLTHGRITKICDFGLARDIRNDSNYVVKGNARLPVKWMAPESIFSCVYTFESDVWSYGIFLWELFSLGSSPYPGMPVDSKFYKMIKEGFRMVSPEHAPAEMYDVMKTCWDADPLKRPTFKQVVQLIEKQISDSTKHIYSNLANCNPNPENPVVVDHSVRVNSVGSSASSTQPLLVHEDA
UniProt P62993: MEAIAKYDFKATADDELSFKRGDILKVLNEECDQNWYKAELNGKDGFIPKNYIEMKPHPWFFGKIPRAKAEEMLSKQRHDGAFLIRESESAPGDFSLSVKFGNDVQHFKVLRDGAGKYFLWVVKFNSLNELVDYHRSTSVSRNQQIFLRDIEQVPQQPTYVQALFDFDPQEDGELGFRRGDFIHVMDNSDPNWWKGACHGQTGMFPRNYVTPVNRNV

Experiment [1] concerns the target T1, human MCEMP1 with carboxy-terminal Flag, expressed in 293T cells (human) (UniProt Q8IX19).
T1 sequence: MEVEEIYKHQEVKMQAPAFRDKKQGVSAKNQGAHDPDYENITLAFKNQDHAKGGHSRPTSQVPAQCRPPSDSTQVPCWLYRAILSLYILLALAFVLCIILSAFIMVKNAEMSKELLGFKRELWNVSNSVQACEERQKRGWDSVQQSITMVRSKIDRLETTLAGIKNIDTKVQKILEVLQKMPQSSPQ
Kind of experiment: co-IP; 293T cells transfected; 1% Triton X-100, 50 mM Tris-HCl pH 8.0, 150 mM NaCl; M2 beads or HA beads, 4 °C, 1-2 h; washes with 150~400 mM NaCl; immunoblot.

Experiment [2] has as its target T2, mouse MCEMP1 with carboxy-terminal Flag, expressed in 293T cells (mouse) (UniProt Q9D8U6).
T2 sequence: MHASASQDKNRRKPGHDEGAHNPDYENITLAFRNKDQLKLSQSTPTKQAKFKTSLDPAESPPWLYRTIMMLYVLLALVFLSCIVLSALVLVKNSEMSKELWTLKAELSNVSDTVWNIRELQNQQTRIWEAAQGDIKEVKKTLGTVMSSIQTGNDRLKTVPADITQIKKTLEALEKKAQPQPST
Described as above.

In experiment [3] the target is T3, wild-type MCEMP1 with carboxyl-terminal Flag, stably expressed in HMC-1 human mast cells (not stated (human or mouse cDNA cloned)) (UniProt Q8IX19).
T3 sequence (chain, tyrosine-phosphorylated after αFlag stimulation): T1 sequence
Put plainly: co-IP; C57 or HMC-1 cells stably expressing MCEMP1-Flag (with or without αFlag for 1 min); lysates immunoprecipitated with anti-Flag antibody; immunoblot. (In general: A western blot detects proteins with antibodies after separation by electrophoresis.)

These are yes or no findings as the source states them, for the method shown. Binding seen in cells or lysates may run through a third protein. Some results given as binding are weak or reduced against the parent protein; the word gives no strength. Where a sequence is shown, tags or fusion partners need not be part of it.

For “human KIT with carboxy-terminal HA or V5 epitope, expressed in 293T cells (from UniProt P10721 26-976) (receptor)”, the binding result in experiment [1] is “binds”.

For the substance “mouse KIT with carboxy-terminal HA or V5 epitope, expressed in 293T cells (from UniProt P05532 25-979) (receptor)”, the binding entry in experiment [2] and in experiment [1] was “binds” throughout. Regarding “growth factor receptor-bound protein 2 (Grb2), endogenous, human cells (from UniProt P62993 1-217)”, in experiment [3], the binding entry was “binds”.
